According to publication PMC9799976:

Target: neuron-specific dynein intermediate chain isoform IC-1B
Assay: co-IP; HEK293 cells transfected with IC-1B and HA-tagged DCX with or without JIP3; antibody for HA precipitates HA-DCX; Western blot for DIC and HA

binding: binds
B1: JIP3 expressed in HEK293 cells (protein, UniProt Q9ESN9 1-1337)
chain: MMEIQMDEGGGVVVYQDDYCSGSVMSERVSGLAGSIYREFERLIHCYDEEVVKELMPLVVNVLENLDSVLSENQEHEVELELLREDNEQLLTQYEREKALRKQAEEKFIEFEDALEQEKKELQIQVEHYEFQTRQLELKAKNYADQISRLEERESEMKKEYNALHQRHTEMIQTYVEHIERSKMQQVGGSGQTESSLPGRSRKERPTSLNVFPLADGMVRAQMGGKLVPAGDHWHLSDLGQLQSSSSYQCPNDEMSESGQSSAAATPSTTGTKSNTPTSSVPSAAVTPLNESLQPLGDYVSVTKNNKQAREKRNSRNMEVQVTQEMRNVSIGMGSSDEWSDVQDIIDSTPELDVCPETRLERTGSSPTQGIVNKAFGINTDSLYHELSTAGSEVIGDVDEGADLLGEFSVRDDFFGMGKEVGNLLLENSQLLETKNALNVVKNDLIAKVDQLSGEQEVLKGELEAAKQAKVKLENRIKELEEELKRVKSEAVTARREPREEVEDVSSYLCTELDKIPMAQRRRFTRVEMARVLMERNQYKERLMELQEAVRWTEMIRASREHPSVQEKKKSTIWQFFSRLFSSSSSPPPAKRSYPSVNIHYKSPTAAGFSQRRSHALCQISAGSRPLEFFPDDDCTSSARREQKREQYRQVREHVRNDDGRLQACGWSLPAKYKQLSPNGGQEDTRMKNVPVPVYCRPLVEKDPSTKLWCAAGVNLSGWKPHEEDSSNGPKPVPGRDPLTCDREGEGEPKSTHPSPEKKKAKETPEADATSSRVWILTSTLTTSKVVIIDANQPGTIVDQFTVCNAHVLCISSIPAASDSDYPPGEMFLDSDVNPEDSGADGVLAGITLVGCATRCNVPRSNCSSRGDTPVLDKGQGDVATTANGKVNPSQSTEEATEATEVPDPGPSESEATTVRPGPLTEHVFTDPAPTPSSSTQPASENGSESNGTIVQPQVEPSGELSTTTSSAAPTMWLGAQNGWLYVHSAVANWKKCLHSIKLKDSVLSLVHVKGRVLVALADGTLAIFHRGEDGQWDLSNYHLMDLGHPHHSIRCMAVVNDRVWCGYKNKVHVIQPKTMQIEKSFDAHPRRESQVRQLAWIGDGVWVSIRLDSTLRLYHAHTHQHLQDVDIEPYVSKMLGTGKLGFSFVRITALLIAGNRLWVGTGNGVVISIPLTETVVLHRGQLLGLRANKTSPTSGEGTRPGGIIHVYGDDSSDKAASSFIPYCSMAQAQLCFHGHRDAVKFFVSVPGNVLATLNGSVLDSPSEGPGPAAPAADAEGQKLKNALVLSGGEGYIDFRIGDGEDDETEECAGDVNQTKPSLSKAERSHIIVWQVSYTPE

No constants are given. Whether binding was seen depends on the method and setting. In cells and extracts the contact can be indirect. A result given as binding can be weak or reduced; the word gives no strength.
